Assay results from PMC7029851, “Antibacterial activity of novel dual bacterial DNA type II topoisomerase inhibitors” (PLoS ONE, 2020).

System: S. aureus ATCC BAA-1720 mutants
Experiment: Characterization of resistant mutants (sequencing, growth rate)
Assay type: cell-based, Staphylococcus aureus
Conditions: for Reduction of bacterial growth rate of resistant mutant (fitness cost): S. aureus ATCC BAA-1720 mutant vs wild type; for Point mutation in resistant mutant: S. aureus ATCC BAA-1720 mutant with highest MIC increase, gyrA, gyrB, grlA, grlB sequenced

Structure (SMILES)	Reduction of bacterial growth rate of resistant mutant (fitness cost)	Point mutation in resistant mutant
Cl.N#Cc1ccc2ccc(=O)n([C@H]3CC[C@H](NCc4cc5c(=O)oc6ccc(F)cc6c5[nH]4)CC3)c2c1 [Compound 2, 1-(trans-4-{[(8-fluoro-4-oxo-1,4-dihydro[1]benzopyrano[4,3-b]pyrrol-2-yl)methyl]amino}cyclohexyl)-2-oxo-1,2-dihydroquinoline-7-carbonitrile hydrochloride]	30%	position 44 in gyrA subunit, outside of the QRDR, causing a proline to be replaced with a leucine residue
O=C1COc2ncc(F)cc2N1[C@H]1CC[C@H](NCc2cc3c(=O)oc4ccc(F)cc4c3[nH]2)CC1 [Compound 1, 8-fluoro-2-({[trans-4-(7-fluoro-2-oxo-2,3-dihydro-1H-pyrido[2,3-b][1,4]oxazin-1-yl)cyclohexyl]amino}methyl)[1]benzopyrano[4,3-b]pyrrol-4(1H)-one]	55%	point mutation in gyrB resulting in the replacement of a proline at amino acid position 456 by leucine
